Results on 39 sequences are retold here after paper PMC7862700.

This is one part of the list. The exact form of the protein is not confirmed.

In this assay the target is T1, ELF2 (UniProt Q15723).
T1 sequence: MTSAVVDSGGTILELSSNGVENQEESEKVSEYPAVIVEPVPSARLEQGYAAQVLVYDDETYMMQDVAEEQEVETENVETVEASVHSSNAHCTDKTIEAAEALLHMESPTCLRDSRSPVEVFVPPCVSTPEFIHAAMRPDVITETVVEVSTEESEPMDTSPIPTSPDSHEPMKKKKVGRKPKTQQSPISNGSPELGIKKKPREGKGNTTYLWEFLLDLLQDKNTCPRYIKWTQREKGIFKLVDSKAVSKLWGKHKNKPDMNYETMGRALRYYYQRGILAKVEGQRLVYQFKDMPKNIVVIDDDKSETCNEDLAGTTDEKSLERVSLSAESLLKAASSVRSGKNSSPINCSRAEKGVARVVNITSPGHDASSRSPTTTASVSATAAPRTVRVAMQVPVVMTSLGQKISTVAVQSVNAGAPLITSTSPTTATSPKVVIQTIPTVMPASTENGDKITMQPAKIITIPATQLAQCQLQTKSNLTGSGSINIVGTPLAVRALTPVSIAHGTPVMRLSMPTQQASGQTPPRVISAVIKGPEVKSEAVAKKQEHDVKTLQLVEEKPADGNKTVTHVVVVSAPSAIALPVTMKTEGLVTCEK
Description: DAPPL (digital affinity profiling via proximity ligation, sequencing). Conditions: 10 mM Tris-HCl pH 7.5, 50 mM NaCl, 1 mM DTT, 4% glycerol, room temperature, 30 min; GST-TFs on glutathione beads, 16-mer random dsDNA library, 0.1% …; high values mean tight binding; double strand, one strand shown; scale: fold enrichment (6-mer frequency, TF over GST control).
CGAAAG registered a binding signal of 1.05. In the case of ATGCTT it was 1.27; in that of TAAAGA, 1.1. In the case of TCTAAT it was 1.11; in that of CATTTA, 1.15; in that of CAATCC, 1.18. As for TGTCTC, the figure is 1.17; as for TCTGCA, 1.25. With GCTTTG, the binding signal was determined as 1.06. In the case of TACACG it was 1.14; in that of TTTCGA, 1.36. Consider TAATTG, for which the binding signal was determined as 1.37.

The sequence ACCGAA displayed a binding signal of 1.03. In the case of GCCTTT it was 1.22; in that of TGGTCT, 1.43. In the case of TATCCT it was 1.97; in that of ATCTCC, 1.46; in that of TAATCT, 1.35. In the case of TCACAC it was 1.25; in that of CCTACT, 1.69; in that of ATTGCC, 1.26.

Sequence ACCGAC returned a binding signal of 1.31. In the case of TAATTT it was 1.49; in that of ACTTTA, 1.16; in that of CCGATA, 1.16. In the case of CTGCGA it was 1.2. As for AAGTAC, the figure is 1.69. Turning to TCACGA, the binding signal is 1.03. In the case of CATCTT it was 1.14; in that of CCCGGA, 4.79; in that of ATGGCT, 1.26. In the case of CGATCT it was 1.21; in that of AATTGT, 1.33; in that of TTCTCA, 1.2. In the case of TCTCTA it was 1.23; in that of AAGGAA, 1.6; in that of TTGATA, 1.19. On to CGGCTC, for which the binding signal came to 1.24.

The sequence TATGTA showed a binding signal of 1.21.
